US20130203649A1, “INHIBITORS OF TLR SIGNALING BY TARGETING TIR DOMAIN INTERFACES” (UNIVERSITY OF MARYLAND, BALTIMORE, priority 2012, published 2013)
Entries after “also recorded” stand apart in the source; their conditions may differ. Part of at least one peptide drawing is inferred or uncertain, most often the ends. Some of these results come from one statement about several compounds together. No end group written: not given here.

What was measured:
Type in all cases: cell-based
TLR4 [1] = experiment: Inhibition of TLR4 signaling in thioglycollate-elicited mouse macrophages (effective concentration, overall inhibitory activity); details: for Inhibition of TLR4 signaling (overall): LPS-stimulated mouse macrophages; for Effective conc.: TLR4 pathway, thioglycollate-elicited mouse macrophages
Description: C57BL/6J mice were obtained from The Jackson Laboratory (Bar Harbor, Me.). Primary peritoneal macrophages were obtained by peritoneal lavage 4 days after intraperitoneal injection (3 ml) of sterile 3% thioglycolate broth. Washed cells were resuspended in RPMI 1640 which contained 2% FBS, 1% penicillin:streptomycin and 2 mM L-glutamine. After plating, cells were incubated overnight at 37° C. and then washed with PBS to remove non-adherent cells. Cells were exposed to peptides 30 min before stimulation with a TLR agonist.
TIRAP/Mal functions to facilitate MyD88 recruitment to the activated TLR4 and TLR2, presumably through a simultaneous interaction with receptor and MyD88 TIR domains. Therefore, multiple TIR:TIR interaction sites are expected in TIRAP TIR. The decoy peptide approach was used to obtain leads on the functional protein-protein interfaces within TIRAP/Mal, a TLR adapter protein. To this end, eleven TIRAP TIR-derived decoy peptides were designed to be structurally homologous to the TLR4 TIR-derived decoy peptides used previously (1), so that each peptide represents a non-fragmented patch of the TIRAP TIR surface, with the entire domain encompassed by the set of peptides. The TIRAP TIR-derived decoy peptides were synthesized in tandem with the cell-permeating sequence of Antennapedia homeodomain (21) and each peptide was tested for the ability to inhibit TLR4 and TLR2 signaling in primary mouse macrophages. Peptide sequences and the structural regions they represent are shown in reference (30).
C57BL/6J mice were obtained from The Jackson Laboratory (BarHarbor, Me.). Harvesting, culturing, and stimulation of peritoneal macrophages were described in previous publications (1, 18, 19). Escherichia coli K235 LPS (34) was used at the final concentration of 100 ng/ml. The 2,3-bis(palmitoyloxy)-(2-RS)-propyl-N-palmitoyl-(R)-Cys-Ser-Lys4-OH (P3C) and S[2,3-bis(palmitoyloxy)-(2-RS)-propyl]-[R]-Cys-Ser-Lys4-OH (P2C) (EMC Microcollections, Tubingen, Germany) were used at 500 and 50 ng/ml, respectively. Oligonucleotide (ODN) 1668 and low m.w. polyinosinic-polycytidylic acid [poly(I:C)] in complex with LyoVec were obtained from InvivoGen; these agonists were used at 2.5 μM and 400 ng/ml, respectively.

TLR4 [2] = experiment: LPS-induced MAPK (ERK, JNK, p38) activation in mouse macrophages (Western analysis); details: for Duration of inhibition of MAPKs after LPS stimulation: data not shown; for LPS-induced p38, ERK, and JNK MAPK activation: lysates 30 min after LPS
Description: Cellular protein extracts were isolated by addition of 240 μL per well cold lysate buffer (20 mM Tris, 50 mM NaCl, 1.5 mM MgCl2, 2 mM EDTA, 10 mM NaF, 2 Mm DTT, 1 mM Na3VO4, 1% Triton). Cells were incubated with lysis solution for 30 min on agitator at 4° C. Lysate was then collected and centrifuged at 14,000 g for 10 minutes at 4° C. After quantification using BioRad protein assay, protein samples were added to Laemmli buffer and then boiled for 10 min. Samples were then resolved by SDS-10% PAGE in Tris/glycine/SDS buffer (25 mM Tris, 250 mM glycine, 0.1% SDS), and transferred onto Immobilon P transfer membranes (Millipore, Bedford, Mass.) (100 V, 1.5 h, 4° C.). Membranes were blocked for 1 h in TBS-T (20 mM Tris-HCl, 150 mM NaCl, 0.1% Tween 20) containing 5% nonfat milk, then probed for overnight at 4° C. with the respective antibodies (Abs) (dilution 1:1000 in TBS-T with 2% BSA). After washing in TBS-T, membranes were incubated with secondary HRP-conjugated, donkey anti-rabbit IgG (1:10,000 dilution in TBS-T with 5% nonfat milk) for 1 h at room temperature. Membranes washed five times in TBS-T before development with ECL reagents (GE Healthcare) according to manufacturer's directions.
HEK293T cells were transfected with indicated plasmids using Superfect Transfection Reagent (Qiagen). Twenty-four hours posttransfection, the cells were lysed using the buffer containing 20 mM HEPES (pH 7.4), 150 mM NaCl, 10 mM NaF, 2 mM Na3VO4, 1 mM EDTA, 1 mM EGTA, 0.5% Triton X-100, 0.1 M DTT, 1 mM PMSF, and protease inhibitor mixture (Roche, Indianapolis, Ind.). Rabbit Ab against phospho-ERK, phospho-JNK, MyD88 (D80F5), STAT1-Y701, total STAT1, and GAPDH were purchased from Cell Signaling Technology (Beverly, Mass.). Rabbit anti-phospho-p38 Ab was purchased from Promega (Madison, Wis.). Goat anti-TLR4 (M−16), rabbit anti-TLR4 (H-80), anti-HA-HRP (F-7), and rabbit anti-b-actin Ab were purchased from Santa Cruz Biotechnology. Mouse anti-Flag M2 and rabbit anti-HA Ab were from Sigma-Aldrich. GFP Ab (A1122) was from Invitrogen. Protein was quantified using Bio-Rad protein quantification kit. Equal amount of protein was loaded and analyzed by 10% SDS-PAGE and immunoblotting. The cell extracts containing equal amount of protein were incubated with 1 μg Ab for 2 h, followed by 4-h incubation with 25 μl protein G agarose beads (Roche); the beads were then washed four times with lysis buffer, boiled in […] sample loading buffer, and analyzed by immunoblotting.
We next examined whether TRAM peptides inhibit the TLR4-mediated p38, ERK, and JNK MAPK activation. Murine macrophages pretreated with peptides for 30 min were challenged with LPS. Cell lysates were collected 30 min post-stimulation and analyzed for MAPK phosphorylation by Western analysis. Consistent with peptide effects on steady-state mRNA, both TM4 and TM6 inhibited activation of all three MAPKs (FIG. 5C). The inhibition of MAPKs by TM4 or TM6 was long lasting; it persisted for at least 1 h after LPS stimulation (data not shown). To characterize further the effects of TRAM peptides on MAPKs, murine macrophages were treated with TRAM peptides, but not challenged by LPS.

TLR4 [3] = experiment: LPS-induced cytokine secretion by mouse macrophages (ELISA/multiplex); details: 5 or 20 μM peptide; LPS 100 ng/ml; supernatants 24 h
Description: Cytokine secretion was measured in supernatant samples collected at 6 or 24 h time points and stored at −80° C. Samples were analyzed by a multiplex assay at the University of Maryland Baltimore Cytokine Core Facility using a Luminex 100 reader and Softmax Pro software, or by ELISA kits for mouse IL-6 or TNF-α from BioLegend (San Diego, Calif.) and LT-4000 microplate reader.
A total of 2×10^6 cells was plated in 12-well plates and treated with peptides for 30 min prior to LPS stimulation. TNF-α, IL-1β, IL-6, and IFN-β were measured using ELISA kits from BioLegend (San Diego, Calif.), as recommended by the manufacturer.

| Sequence | Inhibition of TLR4 signaling (overall) (TLR4 [1]) | Effective conc. (TLR4 [1]) | LPS-induced activation of p38 and ERK MAPKs (TLR4 [2]; 20 μM peptide, LPS 30 min) | Duration of inhibition of MAPKs after LPS stimulation (TLR4 [2]) | LPS-induced p38, ERK, and JNK MAPK activation (TLR4 [2]) | LPS-induced cytokine secretion (TLR4 [3]) |
| --- | --- | --- | --- | --- | --- | --- |
| RQIKIWFQNRRMKWKKENFLRDTWCNFQFY [TM6] | block | 20 µM | potently inhibited | at least 1 h | inhibit | strong and lasting inhibitory effect; also recorded: inhibit |
| RQIKIWFQNRRMKWKKIVFAEMPCGRLHLQ [TM4] | very efficient overall inhibitor; also recorded: block | 10 µM |  | at least 1 h | inhibit | strong and lasting inhibitory effect; also recorded: inhibit |
